This is an account of results in article PMC10218236.

By UniProt entry, the sequences of proteins in these tests, tags left out. Residues count along the entry.
UniProt P32004, 20-1257: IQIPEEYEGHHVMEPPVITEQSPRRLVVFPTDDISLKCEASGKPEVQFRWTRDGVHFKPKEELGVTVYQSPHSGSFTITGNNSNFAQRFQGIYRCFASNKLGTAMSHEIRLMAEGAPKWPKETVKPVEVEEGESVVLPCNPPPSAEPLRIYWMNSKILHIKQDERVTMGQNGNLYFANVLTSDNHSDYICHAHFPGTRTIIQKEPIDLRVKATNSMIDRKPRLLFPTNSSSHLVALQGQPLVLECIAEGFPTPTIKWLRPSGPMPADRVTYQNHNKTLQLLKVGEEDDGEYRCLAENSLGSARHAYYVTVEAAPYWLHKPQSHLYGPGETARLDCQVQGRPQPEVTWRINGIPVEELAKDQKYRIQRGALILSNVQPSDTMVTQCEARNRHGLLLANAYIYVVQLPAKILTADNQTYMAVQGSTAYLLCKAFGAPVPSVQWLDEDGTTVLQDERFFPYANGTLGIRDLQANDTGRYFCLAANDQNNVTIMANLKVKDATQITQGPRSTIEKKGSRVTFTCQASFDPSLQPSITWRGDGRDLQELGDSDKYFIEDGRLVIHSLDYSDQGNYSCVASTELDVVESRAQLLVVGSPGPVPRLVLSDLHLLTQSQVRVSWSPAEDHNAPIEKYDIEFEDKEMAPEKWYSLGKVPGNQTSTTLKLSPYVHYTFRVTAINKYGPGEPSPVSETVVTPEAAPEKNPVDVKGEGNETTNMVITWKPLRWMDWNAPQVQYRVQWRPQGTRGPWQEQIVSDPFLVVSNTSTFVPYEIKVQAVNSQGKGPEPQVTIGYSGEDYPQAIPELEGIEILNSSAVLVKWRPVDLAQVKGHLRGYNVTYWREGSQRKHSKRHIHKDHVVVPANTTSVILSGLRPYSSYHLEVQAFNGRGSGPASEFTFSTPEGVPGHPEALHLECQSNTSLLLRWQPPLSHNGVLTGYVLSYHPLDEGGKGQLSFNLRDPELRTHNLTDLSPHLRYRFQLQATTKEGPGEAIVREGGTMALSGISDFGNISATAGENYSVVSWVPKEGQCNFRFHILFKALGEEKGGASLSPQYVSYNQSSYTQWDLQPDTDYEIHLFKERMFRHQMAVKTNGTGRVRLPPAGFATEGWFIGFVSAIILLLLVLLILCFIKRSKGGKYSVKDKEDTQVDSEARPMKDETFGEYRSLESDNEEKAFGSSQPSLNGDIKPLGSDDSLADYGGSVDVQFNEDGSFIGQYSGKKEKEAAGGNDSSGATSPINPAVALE

Construct, isoform or probe ends are uncertain for at least one entry. At least one result comes from cells or an extract, where the contact may be indirect. For some of these results: Negatives hold for the conditions tested. For some of these results: Weaker means in comparison with the reference protein, sequence or condition of that experiment.

Common to all, as to assay: flow cytometry
Data set [1] has as its target L1CAM on L1CAM-high cells (LoVo) (Homo sapiens?) (UniProt P32004). The note with it: PBS, 4.5 g/L glucose, 5 mM MgCl2, 1 mg/mL BSA, 0.1 mg/mL herring sperm DNA, 30 min at 4 °C (or 25/37 °C), pH not stated, protein on the cell surface, label: FAM, single-stranded DNA.
A further data set deals with L1CAM-FL (UniProt P32004). The note with it: transfected PC3; PBS, 4.5 g/L glucose, 5 mM MgCl2, 1 mg/mL BSA, 0.1 mg/mL herring sperm DNA; 30 min at 4 °C (or 25/37 °C); pH not stated; protein on the cell surface; label: FAM (3' FAM in DMS footprinting); single-stranded DNA.
In a further data set the target is L1CAM-Ig6 (UniProt P32004). The note with it: transfected PC3; PBS, 4.5 g/L glucose, 5 mM MgCl2, 1 mg/mL BSA, 0.1 mg/mL herring sperm DNA; 30 min at 4 °C (or 25/37 °C); pH not stated; protein on the cell surface; label: FAM (3' FAM in DMS footprinting); single-stranded DNA.
For a further data set, the target named is L1CAM-KGE (UniProt P32004). The note with it: transfected PC3; PBS, 4.5 g/L glucose, 5 mM MgCl2, 1 mg/mL BSA, 0.1 mg/mL herring sperm DNA; 30 min at 4 °C (or 25/37 °C); pH not stated; protein on the cell surface; label: FAM (3' FAM in DMS footprinting); single-stranded DNA.
For the next data set, the target named is L1CAM-Ig1-5 (UniProt P32004). The note with it: transfected PC3; PBS, 4.5 g/L glucose, 5 mM MgCl2, 1 mg/mL BSA, 0.1 mg/mL herring sperm DNA; 30 min at 4 °C (or 25/37 °C); pH not stated; protein on the cell surface; label: FAM (3' FAM in DMS footprinting); single-stranded DNA.
Another data set has as its target L1CAM-Ig (UniProt P32004). As to conditions: transfected PC3; PBS, 4.5 g/L glucose, 5 mM MgCl2, 1 mg/mL BSA, 0.1 mg/mL herring sperm DNA; 30 min at 4 °C (or 25/37 °C); pH not stated; protein on the cell surface; label: FAM (3' FAM in DMS footprinting); single-stranded DNA.
The target in another data set is L1CAM-FNIII (UniProt P32004). The note with it: transfected PC3; PBS, 4.5 g/L glucose, 5 mM MgCl2, 1 mg/mL BSA, 0.1 mg/mL herring sperm DNA; 30 min at 4 °C (or 25/37 °C); pH not stated; protein on the cell surface; label: FAM (3' FAM in DMS footprinting); single-stranded DNA.

Turning to “CAGATAAGGGGTAGCTCGGTCGTGTTTTTGGGTTGTTTGGTGGGTCTTCTG [yly20-G7A]”, the binding result in data set [1] (200 nM aptamer) is “binds more weakly”.

As for “CAGATAGGAGGTAGCTCGGTCGTGTTTTTGGGTTGTTTGGTGGGTCTTCTG [yly20-G9A]”, in data set [1] (200 nM, almost lost), the binding result is given as “binds more weakly”.

Consider “CAGATAGGGAGTAGCTCGGTCGTGTTTTTGGGTTGTTTGGTGGGTCTTCTG [yly20-G10A]”, for which, in data set [1] (200 nM, almost lost), the binding result is on record as “binds more weakly”.

For the sequence “CAGATAGGGGATAGCTCGGTCGTGTTTTTGGGTTGTTTGGTGGGTCTTCTG [yly20-G11A]”, in data set [1] (200 nM, almost lost), the binding result is “binds more weakly”.

As for “CAGATAGGGGGTAACTCAGTCGTGTTTTTGGGTTGTTTGGTGGGTCTTCTG [yly20-G1418A]”, in data set [1] (200 nM, almost lost), the binding result is listed as “binds more weakly”.

For “CAGATAGGGGGTAACTCGGTCGTGTTTTTGGGTTGTTTGGTGGGTCTTCTG [yly20-G14A]”, the binding result in data set [1] (200 nM, almost lost) is reported as “binds more weakly”.

Turning to “CAGATAGGGGGTAGATAGGTCGTGTTTTTGGGTTGTTTGGTGGGTCTTCTG [yly20-C1517A]”, the binding result in data set [1] (200 nM, significantly lost) is recorded as “binds more weakly”.

Turning to “CAGATAGGGGGTAGATCGGTCGTGTTTTTGGGTTGTTTGGTGGGTCTTCTG [yly20-C15A]”, the binding result in data set [1] (200 nM, significantly lost) is “binds more weakly”.

For the sequence “CAGATAGGGGGTAGCCCGGTCGTGTTTTCGGGCTGTTTGGTGGGTCTTCTG [yly20-T162933C]”, the binding result in data set [1] (200 nM, almost totally lost) was “binds more weakly”.

“CAGATAGGGGGTAGCTCAGTCGTGTTTTTGGGTTGTTTGGTGGGTCTTCTG [yly20-G18A]”: the binding result in data set [1] (200 nM, almost lost) is listed as “binds more weakly”.

Consider “CAGATAGGGGGTAGCTCGGTCGTGTTTTTGAGTTGTTTGGTGGGTCTTCTG [yly20-G31A]”, for which, in data set [1] (200 nM), the binding result is recorded as “binds more weakly”.

Regarding “CAGATAGGGGGTAGCTCGGTCGTGTTTTTGGGTTGTTTGATGGGTCTTCTG [yly20-G40A]”, the binding result in data set [1] (200 nM, almost lost) is given as “binds more weakly”.

With “CAGATAGGGGGTAGCTCGGTCGTGTTTTTGGGTTGTTTGGTGAGTCTTCTG [yly20-G43A]”, the binding result in data set [1] (200 nM) was “binds more weakly”.

Regarding “CAGATAGGGGGTAGCTCGGTCGTGTTTTTGGGTTGTTTGGTGGGTCTTCTG [yly20]”, the binding result is reported as “binds” with L1CAM-FL; “binds” with L1CAM-Ig6; “binds” with L1CAM-KGE; “no binding” with L1CAM-Ig1-5; “binds” in the data set with L1CAM-Ig; “no binding” with L1CAM-FNIII.
